Our source for the T/C and survivor count values is PubChem BioAssay AID270 (DTP/NCI, 2004).

This experiment deals with BDF1 mice, s.c. Lewis lung carcinoma, T/C %. In words: NCI In Vivo Anticancer Drug Screen. Data for tumor model Lewis Lung Carcinoma (subcutaneous) in B6D2F1 (BDF1) mice. The procedure:
The antitumor activity of compounds was measured in mice bearing transplantable tumors. Survival or tumor size were measured and the results are expressed as the measurement made in the treated group (T) divided by the measurement made in the vehicle treated control group (C). The tumor model used in this assay is Lewis Lung Carcinoma (subcutaneous) in B6D2F1 (BDF1) mice

Where [1] appears, read: T/C endpoint: mean tumor weight, dose: 25.0 mg/kg/injection, schedule: Q01DX011 (ip), vehicle: saline, evaluated on day 12, higher T/C = larger tumour.

Each structure is given as a SMILES string. The list shows only some results of the screen, not a fair sample: its compounds were picked by chemical class. Not every dose and run of a compound is shown. T/C: endpoint of the treated group in % of that of the vehicle group. Schedules are NCI's codes, taken here to give the interval after Q, in days (D) or hours (H), and the number of doses after X. Some T/C values carry the count of animals alive at the toxicity check; where neither a count nor a note follows, no animal had died by that day. Some doses have a count of surviving animals in place of a T/C: the source holds a T/C of zero for them, seemingly a mark for toxic or unscored doses. Some survivor counts are full or nearly so, which does not show that the dose was tolerated: survival well below the control is almost never listed, so the zero probably covers shortened survival too. Survivors were counted at the toxicity check, usually on the fifth day, unless a day is given; later deaths do not show. Survivors were counted at the toxicity check; its day is shown where the source gives one, and later deaths do not show. Where survival is the endpoint, this PubChem deposit counts one and a half times the control or more as active, and values a quarter to a half above the control carry no call in these data; other NCI protocols may use other cut-offs. Some T/C values are followed by the survivors on the day toxicity was checked, most often the fifth; where neither a count nor a note follows, no animal had died by that day.

For the molecule `CCOC(=O)C(CCSC)NC(=O)OCCNCCCl` (stereo unspecified), the T/C runs as follows: (T/C endpoint: median survival time, dose: 12.5 mg/kg/injection, schedule: Q01DX009 (ip), vehicle: saline, higher T/C = longer survival) 99 % of control; (T/C endpoint: median survival time, dose: 25.0 mg/kg/injection, schedule: Q01DX009 (ip), vehicle: saline, higher T/C = longer survival) 102 % of control; (T/C endpoint: median survival time, dose: 50.0 mg/kg/injection, schedule: Q01DX009 (ip), vehicle: saline, higher T/C = longer survival) 114 % of control [9 of 10 alive]. The survivor count (T/C endpoint: median survival time, dose: 100.0 mg/kg/injection, schedule: Q01DX009 (ip), vehicle: saline, higher T/C = longer survival) is listed as 8 of 10.

For the molecule `NC1CCCCC1.O=P(O)(NCCCO)N(CCCl)CCCl`, the T/C is 82 % of control under setting [1]; 66 % of control (T/C endpoint: mean tumor weight, dose: 50.0 mg/kg/injection, schedule: Q01DX011 (ip), vehicle: saline, evaluated on day 12, higher T/C = larger tumour); 47 % of control (T/C endpoint: mean tumor weight, dose: 100.0 mg/kg/injection, schedule: Q01DX011 (ip), vehicle: saline, evaluated on day 12, higher T/C = larger tumour); 16 % of control (T/C endpoint: mean tumor weight, dose: 200.0 mg/kg/injection, schedule: Q01DX011 (ip), vehicle: saline, evaluated on day 12, higher T/C = larger tumour).

Turning to `CCOP(=O)(CCBr)OCC`, the T/C is 107 % of control (T/C endpoint: mean tumor weight, dose: 148.0 mg/kg/injection, schedule: Q01DX011 (ip), vehicle: other, evaluated on day 12, higher T/C = larger tumour); 70 % of control (T/C endpoint: mean tumor weight, dose: 222.0 mg/kg/injection, schedule: Q01DX011 (ip), vehicle: other, evaluated on day 12, higher T/C = larger tumour); 81 % of control [5 of 6 alive] (T/C endpoint: mean tumor weight, dose: 333.0 mg/kg/injection, schedule: Q01DX011 (ip), vehicle: other, evaluated on day 12, higher T/C = larger tumour); 84 % of control (T/C endpoint: mean tumor weight, dose: 500.0 mg/kg/injection, schedule: Q01DX011 (ip), vehicle: other, evaluated on day 12, higher T/C = larger tumour).

As for `COc1ccc(O)c2c(=O)c3c(OC)cc4c(c3oc12)[C@@H]1C=CO[C@@H]1O4`, the T/C is 122 % of control (T/C endpoint: median survival time, dose: 6.25 mg/kg/injection, schedule: Q01DX009 (ip), vehicle: saline with Tween-80, higher T/C = longer survival); 119 % of control (T/C endpoint: median survival time, dose: 12.5 mg/kg/injection, schedule: Q01DX009 (ip), vehicle: saline with Tween-80, higher T/C = longer survival); 132 % of control (T/C endpoint: median survival time, dose: 25.0 mg/kg/injection, schedule: Q01DX009 (ip), vehicle: saline with Tween-80, higher T/C = longer survival); 87 % of control (T/C endpoint: median survival time, dose: 50.0 mg/kg/injection, schedule: Q01DX009 (ip), vehicle: saline with Tween-80, higher T/C = longer survival). Further, the survivor count (T/C endpoint: median survival time, dose: 100.0 mg/kg/injection, schedule: Q01DX009 (ip), vehicle: saline with Tween-80, higher T/C = longer survival) is reported as 10 of 10.

As to `O=C(NN(CCCl)CCCl)c1ccccc1`, the T/C is, setting by setting: (T/C endpoint: mean tumor weight, dose: 12.5 mg/kg/injection, schedule: Q01DX011 (ip), vehicle: saline, evaluated on day 12, higher T/C = larger tumour) 69 % of control; under setting [1], 64 % of control. Moreover, the survivor count runs as follows: (T/C endpoint: mean tumor weight, dose: 50.0 mg/kg/injection, schedule: Q01DX011 (ip), vehicle: saline, higher T/C = larger tumour) 3 of 7; (T/C endpoint: mean tumor weight, dose: 100.0 mg/kg/injection, schedule: Q01DX011 (ip), vehicle: saline, higher T/C = larger tumour) 0 of 7.

`NC(=O)c1cn[nH]c1/N=N/N(CCCl)CCCl`: the T/C (T/C endpoint: median tumor weight (est.), dose: 67.7 mg/kg/injection, schedule: Q01DX009 (ip), vehicle: saline with Tween-80, evaluated on day 14, higher T/C = larger tumour) is 122 % of control; the T/C (T/C endpoint: median tumor weight (est.), dose: 135.5 mg/kg/injection, schedule: Q01DX009 (ip), vehicle: saline with Tween-80, evaluated on day 14, higher T/C = larger tumour) was 77 % of control; the T/C (T/C endpoint: median tumor weight (est.), dose: 271.0 mg/kg/injection, schedule: Q01DX009 (ip), vehicle: saline with Tween-80, evaluated on day 14, higher T/C = larger tumour) is 82 % of control.

Consider `N#C/C(=C\c1ccc(N(CCBr)CCBr)cc1)C(N)=O`, for which the T/C is, setting by setting: (T/C endpoint: median survival time, dose: 0.5 mg/kg/injection, schedule: Q01DX009 (ip), vehicle: saline with Tween-80, higher T/C = longer survival) 90 % of control; (T/C endpoint: median survival time, dose: 1.0 mg/kg/injection, schedule: Q01DX009 (ip), vehicle: saline with Tween-80, higher T/C = longer survival) 95 % of control; (T/C endpoint: median survival time, dose: 4.0 mg/kg/injection, schedule: Q01DX009 (ip), vehicle: saline with Tween-80, higher T/C = longer survival) 87 % of control. For the same molecule, the survivor count (T/C endpoint: median survival time, dose: 2.0 mg/kg/injection, schedule: Q01DX009 (ip), vehicle: saline with Tween-80, higher T/C = longer survival) is 10 of 10; the survivor count (T/C endpoint: median survival time, dose: 8.0 mg/kg/injection, schedule: Q01DX009 (ip), vehicle: saline with Tween-80, higher T/C = longer survival) is 10 of 10; the survivor count (T/C endpoint: median survival time, dose: 12.0 mg/kg/injection, schedule: Q01DX009 (ip), vehicle: saline with Tween-80, higher T/C = longer survival) is reported as 10 of 10.

For `O[C@H](CNCCCl)[C@H](O)CNCCCl`, the T/C (T/C endpoint: mean tumor weight, dose: 1.1 mg/kg/injection, schedule: Q01DX011 (ip), vehicle: other, evaluated on day 12, higher T/C = larger tumour) was 87 % of control; the T/C (T/C endpoint: mean tumor weight, dose: 2.2 mg/kg/injection, schedule: Q01DX011 (ip), vehicle: other, evaluated on day 12, higher T/C = larger tumour) is 93 % of control; the T/C (T/C endpoint: mean tumor weight, dose: 4.5 mg/kg/injection, schedule: Q01DX011 (ip), vehicle: other, evaluated on day 12, higher T/C = larger tumour) is 76 % of control; the T/C (T/C endpoint: mean tumor weight, dose: 4.5 mg/kg/injection, schedule: Q01DX011 (ip), vehicle: saline, evaluated on day 12, higher T/C = larger tumour) was 42 % of control; the T/C (T/C endpoint: mean tumor weight, dose: 9.0 mg/kg/injection, schedule: Q01DX011 (ip), vehicle: saline, evaluated on day 12, higher T/C = larger tumour) is 22 % of control [4 of 6 alive]. For the same molecule, the survivor count (T/C endpoint: mean tumor weight, dose: 18.0 mg/kg/injection, schedule: Q01DX011 (ip), vehicle: saline, higher T/C = larger tumour) is reported as 0 of 6 and the survivor count (T/C endpoint: mean tumor weight, dose: 36.0 mg/kg/injection, schedule: Q01DX011 (ip), vehicle: saline, higher T/C = larger tumour) is 0 of 6.

For the molecule `CCN(CCCl)CC1OC(OC)C2OC(C)(C)OC12` (stereo unspecified), the T/C runs as follows: (T/C endpoint: median survival time, dose: 4.3 mg/kg/injection, schedule: Q01DX009 (ip), vehicle: saline, higher T/C = longer survival) 101 % of control; (T/C endpoint: median survival time, dose: 7.2 mg/kg/injection, schedule: Q01DX009 (ip), vehicle: saline, higher T/C = longer survival) 99 % of control. Also, the survivor count is reported as 10 of 10 (T/C endpoint: median survival time, dose: 12.0 mg/kg/injection, schedule: Q01DX009 (ip), vehicle: saline, higher T/C = longer survival) and 10 of 10 (T/C endpoint: median survival time, dose: 20.0 mg/kg/injection, schedule: Q01DX009 (ip), vehicle: saline, higher T/C = longer survival).
